Laboratory results: PubChem BioAssay AID1259254 (NCATS, 2017)

Assay: 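Finding genes that stop cells copying their DNA twice in one cycle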 (primary screen)
Cell system: human HCT116 colorectal cancer cells
Reagent: single siRNA against human genes
Time to read-out: 3 days
Measured: 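Imaged Hoechst DNA stain sorts each cell into a cycle phase by DNA amount; per plate, G2 fraction set to 0% for non-targeting and 100% for GMNN siRNA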
Scale: G2 robust z-score and G2 cells, % of GMNN control: higher = more G2 cells, more excess DNA replication; raw share of cells in G2: higher = larger share of cells with G2 DNA content
Hit rule: 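Active siRNAs have a G2 robust z of 5 or more median absolute deviations over the median, which in these data means about 38% or higher of GMNN control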
Shown is one part, drawn at random, of about 59,000 reagents tested. About 1,550 of all reagents (2.6%) count as active. 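G2 share is only a proxy for re-replication; each gene was hit by three separate siRNAs, and active genes were retested.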 Raw values vary from plate to plate and are shown uncorrected. A number with no mark means an inactive call. The numbers tell different reagents against one gene apart. Reagent sequences are not shown. Not stated in the record: the amount of reagent.

The opening 5 entries, to show the layout:
gene symbol | siRNA no. | G2 robust z-score | G2 cells, % of GMNN control | raw share of cells in G2 (%)
ANKRD13A (GeneID 88455) | 1 | -0.604 | -1.28 | 3.54
ANKRD13A (GeneID 88455) | 2 | -0.861 | -3.09 | 2.03
ANKRD13A (GeneID 88455) | 3 | 0.18 | 4.24 | 4.27
VPS29 (GeneID 51699) | 1 | -0.525 | -0.728 | 5.62
VPS29 (GeneID 51699) | 2 | 2.05 | 17.4 | 10.5

Main list, from the first entry:
gene symbol | siRNA no. | G2 robust z-score | G2 cells, % of GMNN control | raw share of cells in G2 (%)
ANKRD13A (GeneID 88455) | 1 | -0.604 | -1.28 | 3.54
ANKRD13A (GeneID 88455) | 2 | -0.861 | -3.09 | 2.03
ANKRD13A (GeneID 88455) | 3 | 0.18 | 4.24 | 4.27
VPS29 (GeneID 51699) | 1 | -0.525 | -0.728 | 5.62
VPS29 (GeneID 51699) | 2 | 2.05 | 17.4 | 10.5
VPS29 (GeneID 51699) | 3 | 0.741 | 8.18 | 7.27
PHIP (GeneID 55023) | 1 | 0.32 | 5.22 | 6.53
PHIP (GeneID 55023) | 2 | -0.901 | -3.37 | 2.74
PHIP (GeneID 55023) | 3 | -0.204 | 1.53 | 3.63
ATP1B2 (GeneID 482) | 1 | 0.922 | 9.45 | 7.94
ATP1B2 (GeneID 482) | 2 | -0.383 | 0.274 | 5.17
ATP1B2 (GeneID 482) | 3 | 0.318 | 5.21 | 5.93
ORAI2 (GeneID 80228) | 1 | -1.31 | -6.22 | 1.86
ORAI2 (GeneID 80228) | 2 | 0.152 | 4.03 | 6.07
ORAI2 (GeneID 80228) | 3 | -0.194 | 1.6 | 2.81
CFAP141 (GeneID 388701) | 1 | -0.915 | -3.47 | 3.15
CFAP141 (GeneID 388701) | 2 | 0.939 | 9.58 | 7.05
CFAP141 (GeneID 388701) | 3 | -0.417 | 0.0323 | 3.42
TLCD1 (GeneID 116238) | 1 | -0.997 | -4.05 | 2.47
TLCD1 (GeneID 116238) | 2 | -0.239 | 1.29 | 3.71
TLCD1 (GeneID 116238) | 3 | -0.215 | 1.45 | 2.24
SLC35A1 (GeneID 10559) | 1 | -0.484 | -0.44 | 5.5
SLC35A1 (GeneID 10559) | 2 | 5.15 (active) | 39.2 | 16.5
SLC35A1 (GeneID 10559) | 3 | 1.78 | 15.5 | 12.6
CHP2 (GeneID 63928) | 1 | 1.67 | 14.7 | 9.58
CHP2 (GeneID 63928) | 2 | 3.78 | 29.6 | 13.2
CHP2 (GeneID 63928) | 3 | 0.0319 | 3.19 | 4.46
ZNF396 (GeneID 252884) | 1 | -0.248 | 1.22 | 5.21
ZNF396 (GeneID 252884) | 2 | 0.132 | 3.9 | 6.13
ZNF396 (GeneID 252884) | 3 | 2.13 | 18 | 14.5
FGF2 (GeneID 2247) | 1 | 0.219 | 4.51 | 5.26
FGF2 (GeneID 2247) | 2 | -1.02 | -4.2 | 3.71
FGF2 (GeneID 2247) | 3 | 8.19 (active) | 60.6 | 28.3
HMG20B (GeneID 10362) | 1 | 1.94 | 16.6 | 12.9
HMG20B (GeneID 10362) | 2 | 0.0496 | 3.32 | 4.91
HMG20B (GeneID 10362) | 3 | -0.41 | 0.0845 | 6.51
CYTH2 (GeneID 9266) | 1 | -0.481 | -0.414 | 5.12
CYTH2 (GeneID 9266) | 2 | -0.787 | -2.57 | 3.37
CYTH2 (GeneID 9266) | 3 | -0.961 | -3.8 | 3.35
MIB2 (GeneID 142678) | 1 | -0.551 | -0.906 | 3.52
MIB2 (GeneID 142678) | 2 | -0.726 | -2.14 | 2.25
MIB2 (GeneID 142678) | 3 | -0.326 | 0.676 | 3.3
ERICH3 (GeneID 127254) | 1 | 0.404 | 5.81 | 6.36
ERICH3 (GeneID 127254) | 2 | 0.719 | 8.02 | 5.65
ERICH3 (GeneID 127254) | 3 | -0.88 | -3.23 | 1.41
LIPT1 (GeneID 51601) | 1 | 2.56 | 21 | 15.5
LIPT1 (GeneID 51601) | 2 | 5.35 (active) | 40.6 | 19.3
LIPT1 (GeneID 51601) | 3 | -0.113 | 2.17 | 4.63
RPL12P8 (GeneID 645161) | 1 | -0.00473 | 2.93 | 4.75
RPL12P8 (GeneID 645161) | 2 | -0.658 | -1.66 | 2.68
RPL12P8 (GeneID 645161) | 3 | 0.0499 | 3.32 | 4.11
PROKR1 (GeneID 10887) | 1 | -1.22 | -5.64 | 3.82
PROKR1 (GeneID 10887) | 2 | 0.141 | 3.96 | 5.9
PROKR1 (GeneID 10887) | 3 | -0.524 | -0.719 | 3.05
ZBTB43 (GeneID 23099) | 1 | -0.627 | -1.44 | 3.05
ZBTB43 (GeneID 23099) | 2 | 1.41 | 12.9 | 11.7
ZBTB43 (GeneID 23099) | 3 | -0.365 | 0.396 | 3.51
RPS2P50 (GeneID 729842) | 1 | -0.934 | -3.6 | 2.68
RPS2P50 (GeneID 729842) | 2 | 2.44 | 20.1 | 10
RPS2P50 (GeneID 729842) | 3 | 0.149 | 4.01 | 4.64
OR9K2 (GeneID 441639) | 1 | 1.94 | 16.6 | 10
OR9K2 (GeneID 441639) | 2 | 0.318 | 5.21 | 5.39
OR9K2 (GeneID 441639) | 3 | 0.0326 | 3.2 | 4.21
PPDPF (GeneID 79144) | 1 | -0.86 | -3.08 | 3.24
PPDPF (GeneID 79144) | 2 | -1.09 | -4.67 | 2.52
PPDPF (GeneID 79144) | 3 | 0.721 | 8.04 | 4.82
UNC93B1 (GeneID 81622) | 1 | 0.415 | 5.88 | 6.07
UNC93B1 (GeneID 81622) | 2 | 4.08 | 31.7 | 12.9
UNC93B1 (GeneID 81622) | 3 | 0.0109 | 3.04 | 3.33
